Data as given in PubChem BioAssay AID540275 (National Center for Advancing Translational Sciences (NCATS), 2011).
The whole screen tested about 320,000 compounds, of which about 620 (0.19%) were called active. Inconclusive means that the source gave no clear call. Such entries were picked first, then a sample of the others. Rule as the data show it: active = activation above about 80%; inconclusive = between about 30% and that limit; inactive = weaker than that.

Chains of the proteins cited; added tags and fusions are not shown.
UniProt Q8NER1, whole entry, looked up: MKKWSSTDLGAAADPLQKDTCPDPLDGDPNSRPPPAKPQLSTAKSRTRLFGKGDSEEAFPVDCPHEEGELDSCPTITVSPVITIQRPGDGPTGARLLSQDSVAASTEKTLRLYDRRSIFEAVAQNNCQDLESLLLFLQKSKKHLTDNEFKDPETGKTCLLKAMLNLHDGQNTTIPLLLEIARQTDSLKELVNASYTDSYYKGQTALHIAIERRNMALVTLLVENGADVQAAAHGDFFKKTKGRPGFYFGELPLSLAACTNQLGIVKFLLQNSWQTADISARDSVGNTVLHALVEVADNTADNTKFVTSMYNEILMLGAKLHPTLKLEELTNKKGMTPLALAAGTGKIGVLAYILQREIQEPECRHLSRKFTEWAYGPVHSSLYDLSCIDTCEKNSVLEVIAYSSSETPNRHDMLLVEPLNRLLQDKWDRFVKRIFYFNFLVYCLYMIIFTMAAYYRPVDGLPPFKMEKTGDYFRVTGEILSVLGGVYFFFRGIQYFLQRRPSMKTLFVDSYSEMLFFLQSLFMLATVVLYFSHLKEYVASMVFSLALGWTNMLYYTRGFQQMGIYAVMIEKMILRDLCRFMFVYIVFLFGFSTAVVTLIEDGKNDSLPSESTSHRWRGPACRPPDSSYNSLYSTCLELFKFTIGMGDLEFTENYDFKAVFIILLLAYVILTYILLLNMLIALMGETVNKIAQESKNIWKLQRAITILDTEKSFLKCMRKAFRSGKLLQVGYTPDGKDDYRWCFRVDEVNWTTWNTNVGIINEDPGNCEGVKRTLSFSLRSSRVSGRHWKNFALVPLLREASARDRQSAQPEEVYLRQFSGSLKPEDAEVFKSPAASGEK

The compounds below were run against Transient receptor potential cation channel subfamily V member 1 (Homo sapiens) (UniProt Q8NER1) (assay: HTS Assay for Compounds that Act as Agonists of the Vanilloid Receptor 1). Settings: TRPV1-expressing cells, Fluo-8 calcium influx, agonist mode; at 8.33 µM, stronger effect = higher value.
Summary of the method: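 Cells expressing TRPV1 were dye-loaded with Fluo-8 and read kinetically: 10 s baseline, 3 min after compound (agonist portion), then 2 min after EC20 capsaicin (allosteric enhancer portion). Calcium-bound dye fluorescence at 480/520 nm.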
Also: 0% is about no effect.

Row | Structure (SMILES) | activation
1 | CCOC(=O)c1nnn(-c2nonc2N)c1-c1ccc(F)cc1 | inactive: 11.6%
2 | CNc1nc(NC#N)nc(SC)n1 | inactive: 2.12%
3 | CC(=O)Nc1nc2n(n1)C(c1ccc(Cl)cc1)C=C(C)N2 (configuration not stated) | inactive: -2.06%
4 | CCN(/C=N/c1sc2c(c1C#N)CCCCC2)CC | inconclusive: 42.5%
5 | O=C(O)CC(SCC(=O)Nc1ccc(Cl)c(S(=O)(=O)N2CCOCC2)c1)C(=O)O (configuration not stated) | inactive: -1.43%
6 | Oc1ccccc1/C=N/Nc1ncc(Br)cn1 | inconclusive: 31.7%
7 | Cc1ccc(SCCC(=O)Nc2cccc(N(C)S(C)(=O)=O)c2)cc1 | inconclusive: 57.1%
8 | O=C(NCc1ccccc1Cl)c1ccccc1Oc1ccccc1 | inconclusive: 59.2%
9 | Cc1scc(-c2n[nH]c(=S)n2C(C)c2ccccc2)c1C (configuration not stated) | inactive: -1.68%
10 | Cc1cc(C)nc(/N=C(\N)Nc2ccc(OCc3ccccc3)cc2)n1 | inactive: 29.8%
11 | O=C(Nc1ccccc1C(=O)Nc1ccncc1)c1ccccc1 | inconclusive: 32.2%
12 | CC(C)c1cc2cc3ccc(=O)oc3cc2o1 | inconclusive: 41.6%
13 | COc1ccc(C(=O)NN/C(=N/S(=O)(=O)c2ccc(C)cc2)c2ccccc2)cc1 | inconclusive: 37.6%
14 | O=C(Nc1nnc(-c2ccccn2)o1)c1cccc(Br)c1 | inactive: -1.3%
15 | Cc1onc(-c2c(F)cccc2Cl)c1C(=O)c1ccc(F)cc1 | inconclusive: 54%
16 | O=C(Nc1ccccc1)c1cnc2ccccc2n1 | inconclusive: 45%
17 | COc1ccc(N(C)S(=O)(=O)c2cccc(C(=O)Nc3ccc(OC)nc3)c2)cc1 | inconclusive: 41.4%
18 | CCCCNC(=S)N1CCN(C(c2ccccc2)c2ccccc2)CC1 | active: 80.6%
19 | Cc1cccc(C(=O)Nc2ccc(C)c(OC(=O)c3cccc(C)c3)c2)c1 | inconclusive: 36.6%
20 | FC(F)(F)Oc1ccc(NC(=S)NCc2ccccc2)cc1 | inconclusive: 37.6%
21 | CCNc1ccc2noc3c2c1C(=O)c1ccccc1-3 | inconclusive: 56.5%
22 | O=C(Nc1ccc(Br)cc1)c1ccc(CSC2=NCCS2)cc1 | inconclusive: 77%
23 | CCOc1cc(OCC)cc(C(=O)Nc2cccc(C(C)=O)c2)c1 | inconclusive: 51.7%

Row | Structure (SMILES) | activation
24 | O=C(COC(=O)COc1ccc(Br)cc1)NCc1ccccc1 | inconclusive: 31.2%
25 | O=C(COC(=O)C1CCN(c2ccc(C(F)(F)F)cn2)CC1)NCc1cccc(Cl)c1 | inconclusive: 53%
26 | COc1ccccc1/C=C(/CC(=O)NCc1ccccc1)c1nc2ccccc2s1 | inconclusive: 41.7%
27 | Cc1onc(-c2ccccc2)c1C(=O)NNC(=S)NC(=O)c1ccc(Br)cc1 | inactive: 6.9%
28 | COC(=O)CNC(=O)c1cc(-c2ccncc2)nc2c(C)c(Cl)ccc12 | inconclusive: 42.9%
29 | CCCN(CCC)c1nc(NC2CCN(C(=O)OCC)CC2)nc(OC)n1 | inconclusive: 31.7%
30 | CC(NC(=O)C1CC1)c1ccc(-c2ccccc2)cc1 (configuration not stated) | inconclusive: 51.2%
31 | CC(=O)c1ccc(OCCCC(=O)Nc2ccc(C)c(S(=O)(=O)N3CCCCC3)c2)cc1 | inconclusive: 31.5%
32 | COc1ccc(/C=N/Nc2nccnc2Cl)cc1 | inactive: 1.55%
33 | Cc1ccc(C2(C)NC(=O)N(CC(=O)N3CCN(C(=O)c4cccs4)CC3)C2=O)cc1 (configuration not stated) | inactive: -2.27%
34 | CCn1c(CSCc2ccccc2)n[nH]c1=S | inactive: 0.945%
35 | CN1CC=C2C(C#N)=C(N)C(C#N)(C#N)[C@H](c3cccs3)[C@H]2C1 | inactive: 1.89%
36 | Cc1ccc(N(CC(O)CN2CCCCC2)S(=O)(=O)c2ccc(C)cc2)cc1 (configuration not stated) | inactive: 0.155%
37 | C/C(N)=C(/C#N)C(=O)COC(=O)CC12CC3CC(CC(C3)C1)C2 | inconclusive: 31.9%
38 | CC1=CCC[C@@H]2[C@@](C)(CC/C(C)=C/C(=O)O)[C@H](C)CC[C@@]12C | inconclusive: 30.5%
39 | Cc1ccccc1OCCC(=O)OCC(=O)Nc1ccc(C(N)=O)cc1 | inconclusive: 33.4%
40 | COc1cccc(-c2csc(NC(=O)Nc3ccccc3)n2)c1 | inconclusive: 53.2%
41 | Cc1cccc(N=C2NC(=O)/C(=C/c3cccn3C)S2)c1 | inconclusive: 38.3%
42 | Cc1cc(C)c2c(n1)SCC(=O)N2CC(=O)Nc1ccc(C)c(C)c1 | inactive: 2.05%
43 | Cc1ccccc1-c1nc(C#N)c(N2CCCCC2)o1 | inconclusive: 47.1%
44 | CCC(C(=O)OCC(=O)Nc1ccc(F)cc1)c1ccccc1 (configuration not stated) | inconclusive: 55.2%
45 | CN(C)S(=O)(=O)c1ccc(NC(=O)c2cc(-c3cccs3)nc3ccccc23)cc1 | inactive: 7.97%
46 | COCC(C)NC(=O)c1oc2c(c1C)C1(CCC2)SCCS1 (configuration not stated) | inconclusive: 32%

Excerpt, entries 27 to 30
Row | Structure (SMILES) | activation
27 | Cc1onc(-c2ccccc2)c1C(=O)NNC(=S)NC(=O)c1ccc(Br)cc1 | inactive: 6.9%
28 | COC(=O)CNC(=O)c1cc(-c2ccncc2)nc2c(C)c(Cl)ccc12 | inconclusive: 42.9%
29 | CCCN(CCC)c1nc(NC2CCN(C(=O)OCC)CC2)nc(OC)n1 | inconclusive: 31.7%
30 | CC(NC(=O)C1CC1)c1ccc(-c2ccccc2)cc1 (configuration not stated) | inconclusive: 51.2%

Further compounds follow:

Row | Structure (SMILES) | activation
47 | O=C(N/N=C/c1ccc2c(c1)OCO2)c1ccccn1 | inconclusive: 45.7%
48 | CC(CCc1ccccc1)NC(=O)c1nnc(Cc2ccc(F)cc2)o1 (configuration not stated) | inconclusive: 44.8%
49 | CC1=C(C(=O)OC2CCCCCC2)C(c2ccc(C)o2)C2=C(CCCC2=O)N1 (configuration not stated) | inconclusive: 33.9%
50 | COc1ccc(Cl)cc1NC(=O)Nc1cccc([N+](=O)[O-])c1C | inactive: -0.0292%
51 | CCc1sc(C(C2C(=O)CC(C)(C)CC2=O)C2C(=O)CC(C)(C)CC2=O)cc1[N+](=O)[O-] | inactive: -0.336%
52 | CCOc1c(Br)cc(/C=C(\C#N)C(=O)NC2CC2)cc1OC | inconclusive: 50.8%
53 | O=C(COC(=O)Cc1ccccc1F)Nc1ccc(SC(F)F)cc1 | inconclusive: 65.2%
54 | CCOCCCN(C)C1CCN(C(=O)c2oc3ccccc3c2NC(=O)c2cccc([N+](=O)[O-])c2)CC1 | inactive: 1.37%
55 | Clc1ccccc1Nc1ncnc2c1nnn2Cc1ccccc1 | inconclusive: 39.7%
56 | Cc1cc(C)c2c(c1)/C(=N/NC(=O)c1ccc(O)cc1)CCC2 | inconclusive: 34.2%
57 | Cc1cc(O)c(NC(=O)c2ccc(Br)o2)cc1C | inconclusive: 44.6%
58 | O=C(Nc1ccccc1)N1N=C(c2cccs2)CC1c1cccs1 (configuration not stated) | inconclusive: 45.1%
59 | O=C(N/N=C/c1ccc2c(c1)OCO2)c1ccc2c(c1)OCO2 | inconclusive: 69.4%
60 | COc1ccccc1CNC(=O)C(C)c1ccc([N+](=O)[O-])cc1 (configuration not stated) | inconclusive: 59.3%
61 | Fc1ccc(Sc2nc(-c3ccccc3)nnc2C(F)(F)F)cc1 | inactive: 4.91%
62 | CCN(CC)S(=O)(=O)c1ccc(C)c(NC(=O)CSc2nc3ccc(C)cc3[nH]2)c1 | inconclusive: 54.3%
63 | O=C(Cc1ccccc1F)Nc1nc(-c2cccs2)cs1 | active: 81.3%
64 | Cc1ccc(C(=O)OCC(=O)NCc2ccc3c(c2)OCO3)s1 | inconclusive: 40.4%
65 | CC(=O)CCc1oc2ccc(C)cc2c1-c1ccc(C)o1 | inconclusive: 34%
66 | Cc1ccc(S(=O)(=O)N2CCOCC2)cc1NC(=O)COc1ncnc2ccccc12 | inactive: -2.38%
67 | CN(C)Cc1ccccc1Sc1ccc(Br)cc1 | inactive: 0.345%
68 | Cc1nc(COC(=O)c2cc(O)c3ccccc3c2O)cs1 | inconclusive: 50.7%
69 | CCOC(=O)Nc1cccc(NC(=O)c2cc(OC)cc(OC)c2)c1 | inactive: -0.118%

Row | Structure (SMILES) | activation
70 | COc1ccc2[nH]c(O)c(N=NC(=N)N)c2c1 | inactive: -1.66%
71 | CC(C)(C)c1ccc(NC(=S)NCCc2ccccn2)cc1 | inactive: -5.2%
72 | Cc1cc(SCC(=O)N(C)CC(=O)Nc2ccc(F)cc2)nc2ccccc12 | inconclusive: 50.5%
73 | CC1CCN(C(=O)c2cc3c(ccc4ccccc43)o2)CC1 | inconclusive: 59.3%
74 | COc1ccccc1-n1cc(-c2ccc([N+](=O)[O-])cc2)[nH]c1=S | inactive: 0.961%
75 | COc1ccc(CC(=O)OCC(=O)Nc2ccc(OC(F)F)cc2)cc1OC | inconclusive: 67.4%
76 | N#Cc1ccccc1NC(=O)CN(Cc1ccccc1)Cc1ccccc1 | inconclusive: 39.6%
77 | N#Cc1c(NCCCO)nc(-c2ccccc2)c2c1CCCC2 | inconclusive: 39.7%
78 | O=C(NNc1cc(N2CCCC2)nc(N2CCCC2)n1)c1ccc([N+](=O)[O-])cc1 | inactive: -1.11%
79 | Cc1cc2cc(C(c3nnnn3C(C)(C)C)N(Cc3ccco3)CC3CCCO3)c(=O)[nH]c2cc1C (configuration not stated) | inconclusive: 43.8%
80 | CCOc1ccccc1N(CC(=O)Nc1ccccc1)S(=O)(=O)c1ccccc1 | inconclusive: 33.1%
81 | c1ccc(C(Cc2nc(-c3cccnc3)no2)c2ccccc2)cc1 | inconclusive: 36%
82 | CCOc1ccc(-n2nnc3c(=O)n(CC(=O)c4ccccc4)cnc32)cc1 | inconclusive: 57%
83 | COc1ccc(S(=O)(=O)N2CCN(CC(=O)Nc3cc(Cl)ccc3Cl)CC2)cc1 | inactive: 1.19%
84 | CCOc1ccc(S(=O)(=O)Nc2ccccc2C(=O)N/N=C/c2c(OC)ccc3ccccc23)cc1 | inactive: 2.79%
85 | COC(=O)c1c(NC(NC(=O)CC(C)C)C(Cl)(Cl)Cl)sc2c1CCC2 (configuration not stated) | inactive: 18%
86 | COc1ccc(NC(=O)Cn2cnc3c(nnn3-c3ccc(C)cc3)c2=O)cc1 | inconclusive: 31.7%
87 | COc1ccc(NC(=O)CN(C)C(=O)c2ccc(-c3ccccc3Cl)o2)cc1 | inconclusive: 42.6%
88 | COc1ccc(CC(=O)N2CCN(c3cccc(C)c3C)CC2)cc1 | inconclusive: 64.3%
89 | CN(C)c1oc(/C=C/c2ccccc2)nc1C#N | inactive: 2.5%
90 | CC(NC(=S)NCCCN1CCOCC1)C1CC2CCC1C2 (configuration not stated) | inconclusive: 42.8%
91 | O=C(NCC1COc2ccccc2O1)Nc1ccccc1F (configuration not stated) | inconclusive: 48.5%
92 | CC(C)COc1ccc(-c2nnc(-c3ccncc3)o2)cc1 | inconclusive: 63.4%
